Source: PubChem BioAssay AID330 (DTP/NCI, 2004)
The list does not hold the whole screen: it is rich in T/C values a quarter to a half above the control, in often repeated tests (any T/C) and in doses without a T/C. Further doses and runs are listed elsewhere. T/C: endpoint of the treated group in % of that of the vehicle group. Some entries give survivors of the animals treated and no T/C: the source holds a T/C of zero for them, seemingly a mark for toxic or unscored doses. Some doses without a T/C left all or most animals alive at the check, yet need not have been tolerated: the source hardly ever lists a survival T/C far under the control, and the zero likely stands for such cases as well. Counts of survivors are from the toxicity check (mostly the fifth day) where no day follows; animals may have died later. Schedule codes are those of the source, read here as Q, the interval in days (D) or hours (H), X, the number of doses. Some structures stand for samples that the source files as different forms (salt, stereo form or complex); doses refer to the form tested. Some entries hold several experiments; their values stand side by side, smallest first. For survival time, the PubChem record calls one and a half times the control and up active, and a quarter to a half above the control has no call in these data; cut-offs in other NCI protocols can differ. Additions like (4×) count equal records among those shown.

Tested on: P388 leukemia ip, CD2F1 mice, survival T/C
Test: NCI In Vivo Anticancer Drug Screen. Data for tumor model P388 Leukemia (intraperitoneal) in CD2F1 (CDF1) mice
Settings: T/C endpoint: median survival time, higher T/C = longer survival
[1] = dose: 1.56 mg/kg/injection, schedule: Q01DX009 (ip), vehicle: saline
[2] = dose: 3.12 mg/kg/injection, schedule: Q01DX009 (ip), vehicle: saline
[3] = dose: 50.0 mg/kg/injection, schedule: Q01DX005 (ip), vehicle: saline with Tween-80
[4] = dose: 200.0 mg/kg/injection, schedule: Q01DX005 (ip), vehicle: saline with Tween-80
[5] = dose: 200.0 mg/kg/injection, schedule: Q01DX005 (ip), vehicle: Klucel (hydroxypropylcellulose) (HPC)
[6] = dose: 120.0 mg/kg/injection, schedule: Q01DX005 (ip), vehicle: saline with Tween-80
[7] = dose: 60.0 mg/kg/injection, schedule: Q01DX005 (ip), vehicle: saline
[8] = dose: 120.0 mg/kg/injection, schedule: Q01DX005 (ip), vehicle: saline
[9] = dose: 240.0 mg/kg/injection, schedule: Q01DX005 (ip), vehicle: saline

CN(C)P1(N(C)C)=NP(N(C)C)(N(C)C)=NP(N(C)C)(N(C)C)=N1
survivor count (dose: 100.0 mg/kg/injection, schedule: Q04DX003 (ip), vehicle: saline): 3 of 6 | survivor count (dose: 200.0 mg/kg/injection, schedule: Q04DX003 (ip), vehicle: saline): 2 of 6 | survivor count (dose: 400.0 mg/kg/injection, schedule: Q04DX003 (ip), vehicle: saline): 0 of 6

CC[CH](C)[Sn](=[O])[c]1ccccc1 (stereo unspecified)
survivor count (dose: 0.39 mg/kg/injection, schedule: Q01DX009 (ip), vehicle: saline): 6 of 6 | survivor count (dose: 0.79 mg/kg/injection, schedule: Q01DX009 (ip), vehicle: saline): 6 of 6 | T/C [1]: 126 % of control | survivor count [1]: 6 of 6 | T/C [2]: 146 % of control | survivor count [2]: 6 of 6 | survivor count (dose: 6.25 mg/kg/injection, schedule: Q01DX009 (ip), vehicle: saline with Tween-80): 1 of 6 | survivor count (dose: 12.5 mg/kg/injection, schedule: Q01DX009 (ip), vehicle: saline with Tween-80): 0 of 6 | survivor count (dose: 50.0 mg/kg/injection, schedule: Q01DX009 (ip), vehicle: saline with Tween-80): 0 of 6 | survivor count (dose: 100.0 mg/kg/injection, schedule: Q01DX009 (ip), vehicle: saline with Tween-80): 0 of 6 | survivor count (dose: 200.0 mg/kg/injection, schedule: Q01DX009 (ip), vehicle: saline with Tween-80): 0 of 6

O=C(CCCCCCCCc1ccc(O)c(O)c1)c1c(O)cccc1O
survivor count (dose: 6.0 mg/kg/injection, schedule: Q01DX009 (ip), vehicle: Klucel (hydroxypropylcellulose) (HPC)): 6 of 6

O=S1(=O)C2CCC(Cl)C1CCC2Cl (stereo unspecified)
survivor count (dose: 300.0 mg/kg/injection, schedule: Q04DX003 (ip), vehicle: Klucel (hydroxypropylcellulose) (HPC)): 2 of 6

Cc1nsc2[nH]c(=O)n(Nc3ccc(O)cc3)c(=O)c12
T/C [3]: 149 % of control | T/C [4]: 147 % of control | survivor count (dose: 400.0 mg/kg/injection, schedule: Q01DX005 (ip), vehicle: saline with Tween-80): 0 of 6

CCN1CCC(Nc2ccnc3cc(Cl)ccc23)CC1
survivor count [5]: 0 of 5 | survivor count [4]: 1 of 5

[N-]=[N+]=CC(=O)C1(c2ccccc2)OC1c1ccc([N+](=O)[O-])cc1 (stereo unspecified)
survivor count (dose: 100.0 mg/kg/injection, schedule: Q01DX001 (ip), vehicle: saline with Tween-80): 6 of 6 | survivor count (dose: 200.0 mg/kg/injection, schedule: Q01DX001 (ip), vehicle: saline with Tween-80): 6 of 6 | survivor count (dose: 400.0 mg/kg/injection, schedule: Q01DX001 (ip), vehicle: saline with Tween-80): 6 of 6

CCCCCCCCCCNCCSSCCNC(C)=O
survivor count (dose: 100.0 mg/kg/injection, schedule: Q01DX005 (ip), vehicle: Klucel (hydroxypropylcellulose) (HPC)): 0 of 5 | survivor count [5]: 0 of 5

O=C(O)c1ccc2nc(-c3ccccc3)cn2c1
survivor count (dose: 200.0 mg/kg/injection, schedule: Q04DX003 (ip), vehicle: saline with Tween-80): 5 of 6 | survivor count (dose: 400.0 mg/kg/injection, schedule: Q04DX003 (ip), vehicle: saline with Tween-80): 6 of 6

Nc1ccc(-c2csc(-c3ccc(Br)cc3)n2)cc1
survivor count (dose: 50.0 mg/kg/injection, schedule: Q01DX009 (ip), vehicle: Klucel (hydroxypropylcellulose) (HPC)): 6 of 6 | survivor count (dose: 100.0 mg/kg/injection, schedule: Q01DX009 (ip), vehicle: Klucel (hydroxypropylcellulose) (HPC)): 6 of 6 | survivor count (dose: 200.0 mg/kg/injection, schedule: Q01DX009 (ip), vehicle: Klucel (hydroxypropylcellulose) (HPC)): 6 of 6

O=c1[nH]oc(=O)[nH]1
survivor count (dose: 100.0 mg/kg/injection, schedule: Q01DX005 (ip), vehicle: saline): 6 of 6

O=C(O[Si](Cc1ccccc1)(Cc1ccccc1)Cc1ccccc1)N(CCCl)CCCl
T/C (dose: 12.5 mg/kg/injection, schedule: Q04DX003 (ip), vehicle: saline): 134 % of control

C=CC[n+]1cc2c3ccccc3c(N)cc2c2ccccc21
survivor count (dose: 25.0 mg/kg/injection, schedule: Q04DX003 (ip), vehicle: other): 5 of 6 | survivor count (dose: 25.0 mg/kg/injection, schedule: Q04DX003 (ip), vehicle: water): 3 of 6 | survivor count (dose: 50.0 mg/kg/injection, schedule: Q04DX003 (ip), vehicle: other): 0 of 6 | survivor count (dose: 100.0 mg/kg/injection, schedule: Q04DX003 (ip), vehicle: other): 0 of 6 | survivor count (dose: 200.0 mg/kg/injection, schedule: Q04DX003 (ip), vehicle: other): 0 of 6

COc1cccc(/C=N\NC(=O)CNC(=O)Nc2ccc(Cl)c(Cl)c2)c1OC
survivor count (dose: 60.0 mg/kg/injection, schedule: Q01DX005 (ip), vehicle: saline with Tween-80): 6 of 6 | survivor count [6]: 6 of 6

C=CC(=NC(C)(C)C)N(CC)CC
survivor count [6]: 0 of 6 | survivor count (dose: 240.0 mg/kg/injection, schedule: Q01DX005 (ip), vehicle: saline with Tween-80): 0 of 6

CCC(C)C(N)C(=O)NC(CC(N)=O)C(=O)NC(CC(C)C)C(=O)NC(CCCCN)C(=O)NC(C)C(=O)NC(CC(C)C)C(=O)NC(C)C(=O)NC(C)C(=O)NC(CC(C)C)C(=O)NC(C)C(=O)NC(CCCCN)C(=O)NC(CCCCN)C(=O)NC(C(=O)NC(CC(C)C)C(N)=O)C(C)CC (stereo unspecified)
survivor count (dose: 25.0 mg/kg/injection, schedule: Q01DX005 (ip), vehicle: Klucel (hydroxypropylcellulose) (HPC)): 1 of 6 | survivor count (dose: 50.0 mg/kg/injection, schedule: Q01DX005 (ip), vehicle: Klucel (hydroxypropylcellulose) (HPC)): 0 of 6

COC(=O)c1nc(=S)[nH]c(C(=O)OC)c1C(=O)/C=C/c1ccccc1
survivor count (dose: 240.0 mg/kg/injection, schedule: Q01DX005 (ip), vehicle: saline + Tween-80 + alcohol): 2 of 6

N#CN=[N+]([O-])c1ccc(Br)cc1
survivor count (dose: 50.0 mg/kg/injection, schedule: Q04DX003 (ip), vehicle: Klucel (hydroxypropylcellulose) (HPC)): 3 of 6 | survivor count (dose: 100.0 mg/kg/injection, schedule: Q04DX003 (ip), vehicle: Klucel (hydroxypropylcellulose) (HPC)): 2 of 6 | survivor count (dose: 200.0 mg/kg/injection, schedule: Q04DX003 (ip), vehicle: Klucel (hydroxypropylcellulose) (HPC)): 0 of 6

COc1cc(Br)c(CC(NC(=O)c2ccccc2)c2ccc(OC)c(OC)c2OC)cc1OC (stereo unspecified)
survivor count [3]: 6 of 6 | survivor count (dose: 100.0 mg/kg/injection, schedule: Q01DX005 (ip), vehicle: saline with Tween-80): 6 of 6

NCCc1ccc(N)cc1
survivor count (dose: 200.0 mg/kg/injection, schedule: Q01DX009 (ip), vehicle: saline): 5 of 6 | survivor count (dose: 400.0 mg/kg/injection, schedule: Q01DX009 (ip), vehicle: saline): 0 of 6

Cc1ccc(Oc2ccc(C(=O)C(CN(C)C)CN(C)C)cc2)cc1
survivor count (dose: 15.0 mg/kg/injection, schedule: Q01DX005 (ip), vehicle: saline): 6 of 6 | survivor count (dose: 30.0 mg/kg/injection, schedule: Q01DX005 (ip), vehicle: saline): 6 of 6 | survivor count [7]: 0 of 6 | survivor count [8]: 0 of 6 | survivor count [9]: 0 of 6

O=C1C=CC(=O)C1=Cc1ccccc1
survivor count (dose: 10.0 mg/kg/injection, schedule: Q04DX002 (ip), vehicle: saline with Tween-80): 1 of 6

Cc1sc2ccc3ccccc3c2[n+]1C
T/C [7]: 104 (2×), 113, 123 % of control | survivor count [8]: 2 of 6 and 3 of 6 | survivor count [9]: 0 of 6 and 2 of 6
